Reference: publication PMC11236980, “PARG is essential for Polθ-mediated DNA end-joining by removing repressive poly-ADP-ribose marks”
Results are given in words; binding and its absence hold for the method and conditions named. In cells and extracts the contact can be indirect. These calls come from enrichment with a bait or labelling near it, and not all partners need be listed.

Chains of the proteins cited; added tags and fusions are not shown.
UniProt O75417: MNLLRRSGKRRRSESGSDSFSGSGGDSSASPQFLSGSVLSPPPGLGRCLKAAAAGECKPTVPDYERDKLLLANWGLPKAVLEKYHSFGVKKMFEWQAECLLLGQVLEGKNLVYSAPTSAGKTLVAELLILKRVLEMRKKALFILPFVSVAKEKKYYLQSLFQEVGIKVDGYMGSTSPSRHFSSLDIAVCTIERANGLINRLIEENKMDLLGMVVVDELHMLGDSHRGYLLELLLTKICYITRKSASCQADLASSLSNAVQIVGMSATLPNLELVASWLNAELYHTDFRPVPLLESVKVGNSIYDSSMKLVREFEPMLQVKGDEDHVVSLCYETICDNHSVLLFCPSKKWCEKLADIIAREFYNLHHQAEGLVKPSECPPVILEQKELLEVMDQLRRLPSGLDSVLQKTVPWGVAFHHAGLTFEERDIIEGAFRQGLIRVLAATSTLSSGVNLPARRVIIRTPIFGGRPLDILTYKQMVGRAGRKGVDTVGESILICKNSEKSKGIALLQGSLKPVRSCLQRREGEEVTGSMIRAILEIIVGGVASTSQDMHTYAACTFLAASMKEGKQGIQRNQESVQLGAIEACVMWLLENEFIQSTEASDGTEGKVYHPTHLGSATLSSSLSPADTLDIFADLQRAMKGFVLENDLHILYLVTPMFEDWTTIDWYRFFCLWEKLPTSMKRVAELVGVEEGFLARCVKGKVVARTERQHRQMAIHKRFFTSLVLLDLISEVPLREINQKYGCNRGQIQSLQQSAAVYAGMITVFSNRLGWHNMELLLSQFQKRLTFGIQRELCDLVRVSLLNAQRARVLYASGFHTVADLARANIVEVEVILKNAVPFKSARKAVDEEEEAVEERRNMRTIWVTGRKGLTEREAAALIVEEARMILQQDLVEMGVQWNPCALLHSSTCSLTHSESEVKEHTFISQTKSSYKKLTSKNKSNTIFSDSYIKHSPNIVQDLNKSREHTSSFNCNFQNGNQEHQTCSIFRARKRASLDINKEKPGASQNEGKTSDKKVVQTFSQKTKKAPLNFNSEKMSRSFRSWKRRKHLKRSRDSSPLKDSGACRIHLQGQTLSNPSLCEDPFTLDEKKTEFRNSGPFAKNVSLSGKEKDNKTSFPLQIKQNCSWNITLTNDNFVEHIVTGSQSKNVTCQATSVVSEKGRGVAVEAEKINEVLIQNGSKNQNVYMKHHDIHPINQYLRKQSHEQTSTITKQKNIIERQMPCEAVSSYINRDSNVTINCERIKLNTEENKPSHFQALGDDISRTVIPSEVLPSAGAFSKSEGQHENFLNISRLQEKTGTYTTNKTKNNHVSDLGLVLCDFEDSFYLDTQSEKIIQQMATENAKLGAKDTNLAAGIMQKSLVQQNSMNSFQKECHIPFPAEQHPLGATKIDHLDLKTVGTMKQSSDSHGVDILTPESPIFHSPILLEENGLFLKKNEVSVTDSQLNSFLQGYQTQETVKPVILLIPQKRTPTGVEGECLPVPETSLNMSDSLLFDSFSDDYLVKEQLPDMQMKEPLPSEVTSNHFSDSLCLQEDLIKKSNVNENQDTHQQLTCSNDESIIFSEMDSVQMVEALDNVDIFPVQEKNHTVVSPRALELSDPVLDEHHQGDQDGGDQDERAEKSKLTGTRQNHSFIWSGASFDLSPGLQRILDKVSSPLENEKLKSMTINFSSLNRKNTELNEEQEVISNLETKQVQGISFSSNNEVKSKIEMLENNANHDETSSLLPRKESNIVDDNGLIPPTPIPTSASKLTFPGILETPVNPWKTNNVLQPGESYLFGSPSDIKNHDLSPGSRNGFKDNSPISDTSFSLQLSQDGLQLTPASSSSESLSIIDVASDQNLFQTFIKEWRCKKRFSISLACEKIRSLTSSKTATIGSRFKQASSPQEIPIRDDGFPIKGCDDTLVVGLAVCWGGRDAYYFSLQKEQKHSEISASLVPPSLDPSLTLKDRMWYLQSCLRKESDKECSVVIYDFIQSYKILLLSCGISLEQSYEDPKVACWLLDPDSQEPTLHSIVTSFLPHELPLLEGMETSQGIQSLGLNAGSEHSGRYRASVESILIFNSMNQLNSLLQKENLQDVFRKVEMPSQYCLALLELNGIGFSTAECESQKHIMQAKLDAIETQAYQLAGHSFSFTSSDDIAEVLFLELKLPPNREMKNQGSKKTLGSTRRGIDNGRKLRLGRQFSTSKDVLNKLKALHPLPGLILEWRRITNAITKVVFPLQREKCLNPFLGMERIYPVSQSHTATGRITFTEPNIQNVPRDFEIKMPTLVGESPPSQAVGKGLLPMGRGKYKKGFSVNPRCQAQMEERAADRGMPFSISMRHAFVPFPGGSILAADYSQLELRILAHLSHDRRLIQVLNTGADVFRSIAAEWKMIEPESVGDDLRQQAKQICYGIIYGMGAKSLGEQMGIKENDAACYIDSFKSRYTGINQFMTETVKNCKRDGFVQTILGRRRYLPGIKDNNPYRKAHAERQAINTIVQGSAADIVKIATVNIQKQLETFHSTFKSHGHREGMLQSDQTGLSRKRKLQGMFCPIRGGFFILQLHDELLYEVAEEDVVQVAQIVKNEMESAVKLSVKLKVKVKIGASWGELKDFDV
UniProt P09874: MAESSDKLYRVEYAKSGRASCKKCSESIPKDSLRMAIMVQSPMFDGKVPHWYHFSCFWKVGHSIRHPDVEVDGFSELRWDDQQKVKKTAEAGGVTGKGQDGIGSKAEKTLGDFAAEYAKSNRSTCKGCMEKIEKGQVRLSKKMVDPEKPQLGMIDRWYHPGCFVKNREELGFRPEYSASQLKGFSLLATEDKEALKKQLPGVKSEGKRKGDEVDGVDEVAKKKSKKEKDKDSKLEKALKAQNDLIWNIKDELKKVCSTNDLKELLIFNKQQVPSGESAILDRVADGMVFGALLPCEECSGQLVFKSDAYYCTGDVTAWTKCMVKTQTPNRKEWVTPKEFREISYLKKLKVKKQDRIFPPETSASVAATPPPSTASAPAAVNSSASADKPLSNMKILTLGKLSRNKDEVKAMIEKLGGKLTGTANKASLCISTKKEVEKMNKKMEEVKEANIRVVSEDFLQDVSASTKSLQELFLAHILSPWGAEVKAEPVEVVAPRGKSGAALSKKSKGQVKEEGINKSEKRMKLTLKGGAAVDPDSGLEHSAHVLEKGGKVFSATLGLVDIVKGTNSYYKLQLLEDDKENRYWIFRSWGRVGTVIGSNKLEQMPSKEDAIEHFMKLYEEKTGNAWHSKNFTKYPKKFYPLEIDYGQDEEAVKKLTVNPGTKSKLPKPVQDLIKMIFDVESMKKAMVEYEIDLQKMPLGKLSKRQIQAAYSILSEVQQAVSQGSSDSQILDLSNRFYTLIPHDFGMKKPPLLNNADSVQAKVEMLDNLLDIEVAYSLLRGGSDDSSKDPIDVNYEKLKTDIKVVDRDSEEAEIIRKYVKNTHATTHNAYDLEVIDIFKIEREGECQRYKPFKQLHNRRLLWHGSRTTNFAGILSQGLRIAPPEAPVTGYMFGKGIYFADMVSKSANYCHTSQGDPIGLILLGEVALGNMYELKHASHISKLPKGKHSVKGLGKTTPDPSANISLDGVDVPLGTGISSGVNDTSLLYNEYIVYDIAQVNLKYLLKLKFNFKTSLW

Biological target: Polθ-FLAG-HA fusion protein (DNA polymerase theta) (human) (UniProt O75417)
Experiment: affinity purification with mass spectrometry; anti-HA immunoprecipitate from 293T cells expressing Polθ-FLAG-HA, analysed by LC-MS/MS

binding: binds
Substance: Poly(ADP-ribose) polymerase 1 (PARP1) (from UniProt P09874 1-1014)
